Where a name gives a salt, the structure may show the parent alone. The list shows a part of the results. Most values lie at the level of the controls, where differences are scatter.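 Differential scanning fluorimetry gave melting temperatures in a one-replicate pilot screen of a library of approved drugs plus clinical or known-target compounds. Hits increasing melting point at least 2 °C were the strongest stabilizers, while negative shifts signify destabilization.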 *1 amine or outer side, *2 acyl side, *3 side chain or, on linkers, in order; H or OH if unused. Where a SMILES comes first, the peptide text is derived from it. Bridges are numbered along the chain shown (N, C = ends). [ ]: non-standard residue; d: D form. The star is where a group is joined. hTyr(3S-OH,4S-OH,3'-OSO3H) = N[C@H](C(=O)O)[C@H](O)[C@@H](O)c1ccc(O)c(OS(=O)(=O)O)c1; Orn(4R-OH,5R-OH) = O=C([C@H](C[C@@H](O)[C@@H](O)N[*:3])N[*:1])[*:2]; Pro(3S-OH,4S-Me) = C[C@H]1CN[C@H](C(=O)O)[C@H]1O; X2 = CCCCCOc1ccc(-c2cc(-c3ccc(C(=O)*)cc3)no2)cc1; Gln(3R-OH) = NC(=O)C[C@@H](O)[C@H](N)C(=O)O; Hyp = O=C(O)[C@@H]1C[C@@H](O)CN1
System: SARS-CoV-2 main protease (Mpro, nsp5)
Assay: thermal shift ΔTm of Mpro relative to plate average Tm; higher = stronger thermal stabilization of Mpro (binding)
Details: 10 µM; protein concentration 1 µM

| Compound | thermal shift ΔTm of Mpro |
| --- | --- |
| C=CC(=O)Nc1cc(Nc2nccc(-c3c[nH]c4ccccc34)n2)c(OC)cc1N(C)CCN(C)C | -0.0677 °C |
| C#Cc1cccc(Nc2ncnc3cc4c(cc23)OCCOCCOCCO4)c1 [Icotinib] | 0.0933 °C |
| C=CC(=O)Nc1cc(Nc2nccc(-c3cn(C)c4ccccc34)n2)c(OC)cc1N(C)CCN(C)C | -0.0123 °C |
| Cc1ccc(NCCCc2ccccc2)c(N)c1 | -0.389 °C |
| c1ccc(-c2[nH]ncc2-c2ccnc3ccccc23)nc1 | 0.0139 °C |
| OC(c1ccccc1)(c1ccccc1)C12CC[N+](CCOCc3ccccc3)(CC1)CC2 [Umeclidinium bromide] | 0.081 °C |
| Cc1cc(Nc2ncc3c(n2)N(C)C(=O)N(c2cc(NC(=O)c4cccc(C(F)(F)F)c4)ccc2C)C3)n(C)n1 [Pluripotin] | -0.136 °C |
| C[C@H](O)[C@H](O)[C@@H](O)[C@@H](O)C=O [L-(+)-Rhamnose Monohydrate] | -0.132 °C |
| O=C(O)c1ccc(-c2c[nH]c3ncc(-c4ccccc4)cc23)cc1C1CCCC1 | -0.235 °C |
| Cc1ncc(CO)c(CO)c1O [Pyridoxine HCl] | 0.111 °C |
| CN1CCc2cc(Cl)c(O)cc2[C@@H](c2ccccc2)C1 | -0.0735 °C |
| N[C@H]1C[C@@H]1c1ccc(-c2cccc(O)c2)cc1 | 0.0127 °C |
| O=C1c2ccccc2C(=O)C1c1ccc(Cl)cc1 [chlophenadione] | 0.259 °C |
| CC(C)(Sc1cc(C(C)(C)C)c(OC(=O)CCC(=O)O)c(C(C)(C)C)c1)Sc1cc(C(C)(C)C)c(OC(=O)CCC(=O)O)c(C(C)(C)C)c1 [Probucol disuccinate] | -2.54 °C |
| CC(=O)O[C@]1(C(C)=O)CC[C@H]2[C@@H]3C=C(Cl)C4=CC(=O)[C@@H]5C[C@@H]5[C@]4(C)[C@H]3CC[C@@]21C [Cyproterone Acetate] | -0.112 °C |
| CC(C)c1cc(-c2n[nH]c(=O)n2-c2ccc3c(ccn3C)c2)c(O)cc1O [Ganetespib (STA-9090)] | -0.234 °C |
| COc1ccc(-c2ccc3ncc4c(c3c2)n(-c2ccc(N3CCNCC3)c(C(F)(F)F)c2)c(=O)n4C)cn1 | -0.186 °C |
| C=CC(=O)Nc1cccc(Nc2nc(Nc3ccc(Oc4ccnc(C(=O)NC)c4)cc3)ncc2F)c1 | 0.46 °C |
| CCCSc1nc(N[C@@H]2C[C@H]2c2ccc(F)c(F)c2)c2nnn([C@@H]3C[C@H](OCCO)[C@@H](O)[C@H]3O)c2n1 [Ticagrelor] | 0.0175 °C |
| C=C1C[C@@]2(O)O[C@@]3(C[C@H]2C(C)C)[C@@H](C)CC[C@@H]13 [Curcumol] | -0.0043 °C |
| Cc1cc(C)c(-c2csc(NC(=O)c3ccccc3)n2)c(C)c1 | -0.072 °C |
| O=C(O)COCCN1CCN(C(c2ccccc2)c2ccc(Cl)cc2)CC1 (stereo unspecified) [Cetirizine DiHCl] | 0.289 °C |
| C[C@]12CC[C@H](O)C[C@H]1CC[C@@H]1[C@@H]2CC[C@]2(C)[C@@](O)(c3ccoc3)CC[C@]12O [Rostafuroxin] | 0.0856 °C |
| CN1C[C@@H]2C[C@H]1CN2c1cc2c(cc1F)c(=O)c(C(=O)O)cn2C1CC1 [Danofloxacin mesylate] | 0.185 °C |

A different layout for part of the listing above.
Compound	thermal shift ΔTm of Mpro
c1ccc(-c2[nH]ncc2-c2ccnc3ccccc23)nc1	0.0139 °C
C=C1C[C@@]2(O)O[C@@]3(C[C@H]2C(C)C)[C@@H](C)CC[C@@H]13 [Curcumol]	-0.0043 °C
CN1C[C@@H]2C[C@H]1CN2c1cc2c(cc1F)c(=O)c(C(=O)O)cn2C1CC1 [Danofloxacin mesylate]	0.185 °C

Carrying on:

| Compound | thermal shift ΔTm of Mpro |
| --- | --- |
| N[C@@H](Cc1c[nH]c2ccc(O)cc12)C(=O)O [5-hydroxytryptophan (5-HTP)] | -0.519 °C |
| O=C(O)Cc1nn(Cc2ccc(Br)cc2F)c(=O)c2ccccc12 [Ponalrestat] | -0.0151 °C |
| CC(=O)Nc1nc2c(Oc3cc(-c4ccc(C(F)(F)F)cc4)ncn3)cccc2s1 | -0.00238 °C |
| O=C(O)c1cc(C(F)(F)F)ccc1N1CC[C@H](OCc2ccccn2)C1 | -0.3 °C |
| CC(C)n1nc(-c2ccc3oc(N)nc3c2)c2c(N)ncnc21 | -0.0724 °C |
| O=C(NO)c1cccc(C(=O)NCCc2ccccc2)c1 | -0.23 °C |
| Nc1ccc(/C=C/C(=O)NCc2cc3cc(-c4ccc(C(=O)N5CCC(F)(F)CC5)cc4)cc(-c4ccc(F)cc4)c3o2)cn1 | 0.137 °C |
| Cc1[nH]c2ccccc2c1C1=C(NCCc2ccc(F)cc2)C(=O)N(C)C1=O | -0.28 °C |
| NC(=O)c1nc(F)cnc1O [Favipiravir] | 0.0849 °C |
| N=C(N)Nc1ccc(C(=O)Oc2ccc3cc(C(=N)N)ccc3c2)cc1 [Nafamostat Mesylate] | 0.189 °C |
| COc1cc2nc(N(C)CCCNC(=O)C3CCCO3)nc(N)c2cc1OC (stereo unspecified) [Alfuzosin HCl] | 0.0827 °C |
| Oc1ccc2ccccc2c1SSc1c(O)ccc2ccccc12 | 0.443 °C |
| Clc1ccc(Cn2c(CN3CCCC3)nc3ccccc32)cc1 [Clemizole] | 0.0651 °C |
| CCCCc1nc2cc(/C=C/C(=O)NO)ccc2n1CCN(CC)CC [Pracinostat (SB939)] | 0.578 °C |
| O=C(O)/C=C/c1ccc(O)c(O)c1 [Caffeic Acid] | -0.469 °C |
| CC1(C)CC(=O)c2c(C(F)(F)F)nn(-c3ccc(C(N)=O)c(N[C@H]4CC[C@H](O)CC4)c3)c2C1 | 0.07 °C |
| Cc1ncc(CO)c(C(=O)O)c1O [4-Pyridoxic Acid] | 0.108 °C |
| CC(=O)O[C@]1(C(C)=O)CC[C@H]2[C@@H]3CCC4=CC(=O)CCC4=C3[C@@H](c3ccc(N(C)C)cc3)C[C@@]21C [Ulipristal acetate] | 0.288 °C |
| C[N+](C)(C)CCCCCCCCCC[N+](C)(C)C [Decamethonium Bromide] | 0.177 °C |
| CCCCCOc1ccc(-c2cc(-c3ccc(C(=O)N[C@H]4C[C@@H](O)[C@@H](O)NC(=O)[C@@H]5[C@@H](O)[C@@H](C)CN5C(=O)[C@H]([C@H](O)CC(N)=O)NC(=O)[C@H]([C@H](O)[C@@H](O)c5ccc(O)c(OS(=O)(=O)O)c5)NC(=O)[C@@H]5C[C@@H](O)CN5C(=O)[C@H]([C@@H](C)O)NC4=O)cc3)no2)cc1 [Micafungin Sodium] (X2-[Orn(4R-OH,5R-OH)]T[Hyp][hTyr(3S-OH,4S-OH,3'-OSO3H)][Gln(3R-OH)][Pro(3S-OH,4S-Me)]; lactam 1-C) | -0.378 °C |
| N#CSc1cc(SC#N)c(N)nc1N | -2.11 °C |
| CC1(C)CCC(C)(C)c2cc(NC(=O)c3ccc(C(=O)O)cc3)ccc21 [Tamibarotene] | -0.0461 °C |
| N[C@@H](Cc1cc(I)c(Oc2cc(I)c(O)c(I)c2)c(I)c1)C(=O)O [L-Thyroxine] | 0.103 °C |
| O=C(O)C(O)Cc1ccc(O)c(O)c1 (stereo unspecified) [Sodium Danshensu] | -0.881 °C |

As entered above.
CC(C)(Sc1cc(C(C)(C)C)c(OC(=O)CCC(=O)O)c(C(C)(C)C)c1)Sc1cc(C(C)(C)C)c(OC(=O)CCC(=O)O)c(C(C)(C)C)c1 [Probucol disuccinate] | thermal shift ΔTm of Mpro: -2.54 °C
C=CC(=O)Nc1cc(Nc2nccc(-c3cn(C)c4ccccc34)n2)c(OC)cc1N(C)CCN(C)C | thermal shift ΔTm of Mpro: -0.0123 °C
O=C(O)Cc1nn(Cc2ccc(Br)cc2F)c(=O)c2ccccc12 [Ponalrestat] | thermal shift ΔTm of Mpro: -0.0151 °C

Carrying on.

| Compound | thermal shift ΔTm of Mpro |
| --- | --- |
| COc1cc(C(=O)O)ccc1NC(=O)[C@@H]1N[C@@H](CC(C)(C)C)[C@](C#N)(c2ccc(Cl)cc2F)[C@H]1c1cccc(Cl)c1F [Idasanutlin (RG-7388)] | -0.217 °C |
| N=C(N)NC(=O)Cc1c(Cl)cccc1Cl [Guanfacine hydrochloride] | 0.332 °C |
| OCC(O)COc1ccc(Cl)cc1 (stereo unspecified) [Chlorphenesin] | 0.252 °C |
| CC(C)=CCC[C@]1(C)C=Cc2c(O)c3c(c(CC=C(C)C)c2O1)O[C@]12C(=C[C@@H]4C[C@H]1C(C)(C)O[C@@]2(C/C=C(/C)C(=O)O)C4=O)C3=O [Gambogic Acid] | -0.218 °C |
| CCNC(=O)C[C@@H]1N=C(c2ccc(Cl)cc2)c2cc(OC)ccc2-n2c(C)nnc21 | 0.0921 °C |
| Nc1cccc2c1C(=O)N(C1CCC(=O)NC1=O)C2=O (stereo unspecified) [Pomalidomide] | -0.236 °C |
| c1cnc(N2CCNCC2)nc1 [2-(1-Piperazinyl)pyrimidine] | -0.0746 °C |
| Oc1ccc(OC2CCCCO2)cc1 (stereo unspecified) [Deoxyarbutin] | -0.785 °C |
| COc1ccccc1N1CCN(CCN(C(=O)C2CCCCC2)c2ccccn2)CC1 | 0.0724 °C |
| Nc1ccn([C@@H]2O[C@H](CO)[C@@H](O)C2(F)F)c(=O)n1 [Gemcitabine] | -0.0153 °C |
| CO[C@H]1C[C@@H]2CC[C@@H](C)[C@@](O)(O2)C(=O)C(=O)N2CCCC[C@H]2C(=O)O[C@H]([C@H](C)C[C@@H]2CC[C@@H](OCCO)[C@H](OC)C2)CC(=O)[C@H](C)/C=C(\C)[C@@H](O)[C@@H](OC)C(=O)[C@H](C)C[C@H](C)/C=C/C=C/C=C/1C [Everolimus (RAD001)] | -0.593 °C |
| Fc1ccc(Cl)cc1-c1nc(Nc2ccncc2)c2nccnc2n1 | -0.141 °C |
| CN(C)CCN(Cc1ccccc1)c1ccccn1 [Tripelennamine HCl] | -0.113 °C |
| CC1CNc2c(cccc2S(=O)(=O)N[C@@H](CCCNC(=N)N)C(=O)N2CC[C@@H](C)C[C@@H]2C(=O)O)C1 (stereo partly specified) [Argatroban] | 0.142 °C |
| COC(=O)Nc1nc2ccccc2[nH]1 [Carbendazim] | 0.0379 °C |
| CC(=O)O[C@@]12CO[C@@H]1C[C@H](O)[C@@]1(C)C(=O)[C@H](O)C3=C(C)[C@@H](OC(=O)[C@H](O)[C@@H](NC(=O)OC(C)(C)C)c4ccccc4)C[C@@](O)([C@@H](OC(=O)c4ccccc4)[C@H]21)C3(C)C [Docetaxel] | -0.0407 °C |
| CC(=O)O[C@@]12CO[C@@H]1C[C@H](O)[C@@]1(C)C(=O)[C@H](O)C3=C(C)[C@@H](OC(=O)[C@H](O)[C@@H](NC(=O)OC(C)(C)C)c4ccccc4)C[C@@](O)([C@@H](OC(=O)c4ccccc4)[C@H]21)C3(C)C [Docetaxel Trihydrate] | -0.118 °C |
| Nc1ncnc2c1ncn2[C@@H]1O[C@H](CO)[C@@H](O)[C@H]1O [Adenosine] | 0.036 °C |
| Clc1ccc(CSC(Cn2ccnc2)c2ccc(Cl)cc2Cl)cc1 (stereo unspecified) [Sulconazole Nitrate] | -0.36 °C |
| O=C(c1ccc(Nc2nccc(-c3cc4ccccc4s3)n2)cc1)N1CCC(N2CCCC2)CC1 [IKK-16 (IKK Inhibitor VII)] | -0.122 °C |
| CN1c2ccccc2C(NCCCCCCC(=O)O)c2ccc(Cl)cc2S1(=O)=O (stereo unspecified) [Tianeptine sodium] | 0.138 °C |
| C[C@@H](NC(=O)c1ncnc(N)c1Cl)c1ncc(C(=O)Nc2cc(C(F)(F)F)c(Cl)cn2)s1 | -0.00957 °C |
| Cc1cc(/C=C2/SC(=S)NC2=O)c(C)n1-c1cccnc1 [Optovin] | -0.0603 °C |

From the supplement of paper PMC8166895
